In test [1] the target is HLA-F locus adjacent transcript 10 (FAT10) (human) (UniProt O15205). Kind of test: co-IP; lysates of 5637 and UM-UC-3 cells; performed as previously described (ref. 34); which partner was precipitated is not told.
In the next test the target is His-FAT10 (human) (UniProt O15205). Kind of test: co-IP; lysates of 5637 and UM-UC-3 cells transfected with increasing amounts of His-FAT10 plasmid; immunoprecipitation with anti-Ub and anti-FAT10 beads, Survivin detected.

Chains of the proteins cited; added tags and fusions are not shown.
UniProt O15205: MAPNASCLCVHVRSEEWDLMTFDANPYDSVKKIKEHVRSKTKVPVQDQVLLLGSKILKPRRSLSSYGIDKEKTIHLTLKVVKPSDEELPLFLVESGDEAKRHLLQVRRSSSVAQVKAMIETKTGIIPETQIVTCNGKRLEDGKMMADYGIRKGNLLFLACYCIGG
UniProt O15392: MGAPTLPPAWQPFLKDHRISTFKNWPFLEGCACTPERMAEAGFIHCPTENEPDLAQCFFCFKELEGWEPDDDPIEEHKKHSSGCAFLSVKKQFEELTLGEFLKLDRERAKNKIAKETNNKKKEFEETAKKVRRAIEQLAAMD

Results on 1 substance are retold here after paper PMC5348406.

These are yes or no findings as the source states them, for the method shown. In cells and extracts the contact can be indirect. Some binding calls cover weakened binding; strength is not graded here.

In the case of Survivin (from UniProt O15392 1-142), the binding result (in test [1]; in the test with His-FAT10 (human)) was “binds” each time.
